{"source": "patent US20110224276A1", "about": "“OPTICAL ISOMER OF PHENYLPROPIONIC ACID AND ITS MEDICINAL USE” (priority 2008, published 2011)", "experiment": "pharmacokinetic study in rats of ig administration", "format": "in vivo", "conditions": "ig 50 mg/kg, individual animals A-F, listed as R-type isomer", "note": "Several values for one entry are separate records, joined by “and”; a condition that tells them apart may be missing. Identical values can stand only once. The name of at least one read-out is uncertain.", "data": [{"smiles": "C[C@@H](C(=O)O)c1ccc2c(c1)CC(=O)c1ccccc1S2", "note": "[R, R-10,11-dihydro-alpha-methyl-10-oxo-dibenzo[b,f]tiazem-2-acetic acid]", "values": [{"measurement": "Vz/F", "result": "0.9 L/kg and 0.6 L/kg and 2.1 L/kg and 0.7 L/kg and 1.1 L/kg and 0.5 L/kg"}]}]}
